This list was built around the results that the source calls inconclusive (neither active nor inactive); the mix of calls is not that of the screen. A potency beside an inconclusive call is a rough fit, not a confirmed value. The source made the active and inactive calls. Calls follow the shape of the dose curve; as a rule, active = well fitted curve in the direction sought with a large enough effect; inconclusive = small, poorly fitted or top-dose-only effect, or another doubt; inactive = no such curve, though single readings can be large; an effect the other way counts as inactive or inconclusive.
system: NanoLuc luciferase (engineered Oplophorus gracilirostris luciferase); assay: Biochemical coelenterazine-based NLuc counterscreen for small molecule modulators of PMP22 gene expression - Km assay (AID 1508639); details: secreted NLuc enzyme, coelenterazine luminescence, Km conditions; series mostly up to 57.5 µM; activity change, negative = inhibition: at the top concentration;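 as to activity change, negative = inhibition: substrate at 15 µM coelenterazine with 5 min compound preincubation before enzyme addition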
In short: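 Compounds were preincubated 5 min with 15 uM coelenterazine in PBS pH7.4 containing ascorbate and 0.1% TritonX. Secreted NLuc from S16 cell conditioned medium was then added, and luminescence read after 10 min at room temperature.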
% is scaled to controls: 0 for no effect and ±100 for the full control effect; potency is read from the fitted curve at half-maximal effect.

Which “activity change, negative = inhibition” value does the source give for `Cc1nc2cccnc2n1C1CCN(S(=O)(=O)c2ccc(C(C)C)cc2)CC1` here?
The value was inactive: 2.6%.

For `COC(=O)c1ccccc1NC(=O)c1nc(S(=O)(=O)Cc2cccc(C)c2)ncc1Cl`, which Potency is on record?
The Potency was active: 3.85 µM.

Which Potency does the source give for `COc1ccc(OC)c(CNS(=O)(=O)c2ccc3[nH]c4c(c3c2)CCCCC4)c1` here?
The Potency was inconclusive: 15.3 µM [inhibitor, partial curve, poor fit].

Which Potency does the source give for `COc1ccc(N(CC(=O)Nc2cc(Cl)ccc2C)S(=O)(=O)c2c(C)noc2C)cc1` here?
Its Potency is inconclusive: 43.2 µM [inhibitor, partial curve, poor fit].

With `COC(=O)c1c(-c2ccc(Cl)cc2)noc1N1CCN(c2ccc(F)cc2)CC1` as the compound, how does the “activity change, negative = inhibition” value read?
The value was inactive: 0.873%.

Which Potency does the source give for `CCCS(=O)(=O)c1ncc(Cl)c(C(=O)Nc2c(C(=O)Nc3ccccc3)oc3ccccc23)n1` here?
The Potency was active: 1.37 µM.

For `O=C(CCS(=O)(=O)c1nc(-c2cccs2)cc(C(F)(F)F)n1)Nc1ccc(Br)cc1`, which Potency is on record?
The Potency was inconclusive: 5.44 µM [inhibitor, full curve].

For `Cc1cc(Nc2sc(C(=O)c3ccc(F)cc3)c(N)c2C(=O)Nc2ccc(F)cc2)ccc1Cl`, which Potency is on record?
Its Potency is inconclusive: 12.2 µM [inhibitor, partial curve].

Which Potency does the source give for `Cc1[nH]c2ccccc2c1C1(O)C(=O)N(Cc2ccccc2)c2ccc(Cl)cc21` (stereo unspecified) here?
The Potency was inconclusive: 17.2 µM [inhibitor, partial curve].

For `CC(C)(C)c1ccc(C(=O)NCC(c2ccco2)S(=O)(=O)c2ccc(F)cc2)cc1` (stereo unspecified), which “activity change, negative = inhibition” value is on record?
The value was inactive: 7.58%.

With `COc1ccc(-c2cc(C(F)(F)F)nc(S(C)(=O)=O)n2)cc1` as the compound, how does the Potency read?
Its Potency is active: 13.7 µM.

With `CCOC(=O)c1c(C)[nH]c(CCC(=O)NCCCN2CCN(c3cccc(Cl)c3)CC2)c1C` as the compound, how does the “activity change, negative = inhibition” value read?
Its value is inactive: -1.54%.

With `CCOc1ccccc1Nc1sc(C(=O)c2ccc(Cl)cc2)c(N)c1C#N` as the compound, how does the “activity change, negative = inhibition” value read?
The value was inactive: 3.95%.

With `CCc1ccccc1Nc1nn2c(=O)c3ccc(C(=O)Nc4cc(C)cc(C)c4)cc3nc2s1` as the compound, how does the Potency read?
The Potency was inconclusive: 27.3 µM [inhibitor, partial curve, poor fit].

For `CCOc1ccc(C(=O)N2CCc3cc(OC)c(OC)cc3C2COc2ccc3c(C)cc(=O)oc3c2)cc1OCC` (stereo unspecified), which “activity change, negative = inhibition” value is on record?
Its value is inactive: 4.89%.

system: not listed separately; assay: Cell viability qHTS assay in S16 Pmp22-F2sN cells - Confirmatory screen (AID 1508641); details: S16 Schwann cells viability, CellTiter-Glo ATP luminescence, 24 h; activity change, negative = viability loss: at 57.5 µM (top of the series)
In short: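 S16 Pmp22-F2sN Schwann cells (500-1,000/well) in DMEM with 10% FBS were treated with compounds for 24 h at 37C. Viability was read by CellTiter-Glo luminescence after 15 min at room temperature.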

Which Potency does the source give for `O=C(CCS(=O)(=O)c1nc(-c2cccs2)cc(C(F)(F)F)n1)Nc1ccc(OC(F)(F)F)cc1` here?
Its Potency is inconclusive: 8.62 µM [rising, partial curve, poor fit].

For `Cc1ccc(OCCSc2nc3ccc(NC(=O)c4ccc5c(c4)OCO5)cc3s2)cc1`, which Potency is on record?
The Potency was inconclusive: 34.3 µM [cytotoxic, single point].

With `COc1ccc(-c2noc(CSc3nnc(-c4ccncc4)n3-c3ccc(C)c(C)c3)n2)cc1` as the compound, how does the Potency read?
Its Potency is inconclusive: 2.73 µM [cytotoxic, full curve, poor fit].

With `CCC(=O)N1CCc2cc(Br)cc(S(=O)(=O)N3CCCC(C(=O)NCc4cccc(OC)c4)C3)c21` (stereo unspecified) as the compound, how does the “activity change, negative = viability loss” value read?
Its value is inactive: -20.8%.

Which “activity change, negative = viability loss” value does the source give for `O=C(NCCCN1CCN(c2ccc(F)cc2)CC1)c1cc2c(Cl)nc3ccccc3c2s1` here?
Its value is inactive: -19.3%.

Which “activity change, negative = viability loss” value does the source give for `CCN(CC)c1ccc(NC(=O)CCCN2C(=O)C(c3ccccc3)Oc3cccnc32)c(C)c1` (stereo unspecified) here?
Its value is inactive: -17.3%.

For `Cc1nnc(N2CCCC(C(=O)Nc3ccccc3C(F)(F)F)C2)c2nn(-c3ccccc3)c(C)c12` (stereo unspecified), which Potency is on record?
The Potency was inconclusive: 34.3 µM [cytotoxic, single point].

Which Potency does the source give for `COc1ccc(NC(=O)CCS(=O)(=O)c2nc(-c3cccs3)cc(C(F)(F)F)n2)cc1` here?
The Potency was inconclusive: 3.43 µM [rising, full curve, poor fit].

For `CCOc1ccc(C(=O)Nc2ccc3nc(SCc4ccccc4)sc3c2)cc1`, which Potency is on record?
Its Potency is inconclusive: 34.3 µM [cytotoxic, single point].

With `Cc1ccc(NC(=O)c2nc(S(=O)(=O)Cc3cccc(C)c3)ncc2Cl)cc1` as the compound, how does the Potency read?
Its Potency is active: 30.6 µM.

With `COc1ccc(NC(=O)c2ccc3c(=O)n4nc(Nc5ccccc5C)sc4nc3c2)cc1Cl` as the compound, how does the Potency read?
Its Potency is active: 24.3 µM.

For `CCCS(=O)(=O)c1ncc(Cl)c(C(=O)Nc2scc(-c3ccccc3)c2C(=O)OCC)n1`, which Potency is on record?
Its Potency is active: 27.3 µM.

For `Cn1c(=O)c2c(nc(NCc3ccccc3)n2Cc2ccc(Cl)c(Cl)c2)n(C)c1=O`, which “activity change, negative = viability loss” value is on record?
The value was inactive: -25.2%.

Which Potency does the source give for `CCN1CCOC(=O)C1CC(=O)Nc1cccc(OC)c1` (stereo unspecified) here?
The Potency was inconclusive: 43.2 µM [cytotoxic, single point].

Which “activity change, negative = viability loss” value does the source give for `Cc1ccc(O)c(-c2n[nH]c3c2C(c2ccc(F)cc2)N(Cc2ccco2)C3=O)c1` (stereo unspecified) here?
The value was inactive: 13.2%.

With `CCCCOc1ccc(CN2C(=O)C(=O)c3cc(Br)cc(C)c32)cc1OC` as the compound, how does the Potency read?
Its Potency is inconclusive: 34.3 µM [cytotoxic, single point].

From PubChem BioAssay (NCATS)
